About 7,700 (2.3%) of roughly 330,000 compounds were called active. Inconclusive results, whose numbers are uncertain, are shown with a selection of clear calls. Calls follow the shape of the dose curve; as a rule, active = well fitted inhibition curve with a large enough effect; inconclusive = small, poorly fitted or top-dose-only effect, or effect the other way; inactive = flat fitted curve, though single readings scatter. Potencies beside an inconclusive call are fits to weak or partial responses and may not hold up.
Experiment: qHTS screen for small molecules that inhibit ELG1-dependent DNA repair in human embryonic kidney (HEK293T) cells expressing luciferase-tagged ELG1; also: nearly all actives have a fitted effect of over 55% in size
Conditions: HEK293T ELG1-luciferase reporter, luminescence, 16 h, DNA damage induced by 5-fluorouridine; series mostly up to 46.1 µM
How it was run: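 Luminescence from the luciferase reporter, measured 30 min after ONE-Glo reagent at room temperature, was the read-out. Beforehand, 2,000 cells per well were exposed for 16 hr at 37 °C to 5-fluorouridine together with compound or vehicle.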
Potency is read from the fitted curve at half-maximal effect.

SMILES	Potency
COC(=O)C(=Cc1ccc(OCc2ccc([N+](=O)[O-])cc2)c(OC)c1)C(=O)OC	inconclusive: 20.6 µM [inhibitor, single point]
Cc1ccc(C)c(NC(=O)C(Sc2ncnc3ccccc23)c2ccccc2)c1 (centres undefined)	inconclusive: 16.4 µM [inhibitor, partial curve, poor fit]
COc1ccccc1NC(=O)Cn1cnc2sc(C(=O)Nc3ccc(OC)c(OC)c3)c(C)c2c1=O	inactive
Cc1cc(C)cc(NC(=O)c2ccc3c(c2)CCN3S(C)(=O)=O)c1	inactive
O=C(COc1ccc([N+](=O)[O-])cc1)Nc1ccc2c(c1)nc1n2CCOC1	inactive
O=C(Cn1c(=O)n(CC(=O)NCc2ccccc2)c2ccccc21)NCc1ccccc1	inconclusive: 29.1 µM [activator, single point]
O=C(CN1CCOCC1)Nc1ccc2c(c1)CCC2	inconclusive: 14.6 µM [activator, single point]
CN1CCN(CCC(=O)Nc2cccc(Br)c2)CC1	inactive
O=C(CN1C(=O)CCC1=O)Nc1nc(-c2nc3ccccc3s2)cs1	inconclusive: 10.3 µM [activator, partial curve]
Cn1c(Cn2c(=O)sc3ccccc32)nnc1SCC(=O)NC1CCCC1	inactive
Cn1c(=O)c2c(nc(N/N=C/c3cccnc3)n2Cc2ccccc2)n(C)c1=O	inconclusive: 18.3 µM [inhibitor, single point]
COc1cc(CN2CCc3ccc(NC(=O)CCc4ccccc4OC)cc3C2)ccc1O	inactive
O=C(NNS(=O)(=O)c1ccccc1)c1ccc(O)cc1	inconclusive: 23.1 µM [activator, partial curve, poor fit]
CS(=O)(=O)Nc1ccc(C2=NN(S(=O)(=O)c3ccc(F)cc3)C(c3ccco3)C2)cc1 (centres undefined)	inconclusive: 3.66 µM [inhibitor, full curve]
O=C(CCC(=O)Nc1ccc(F)cc1)N/N=C/c1cc([N+](=O)[O-])ccc1O	inconclusive: 23.1 µM [inhibitor, single point]
Cc1ncc(CO)c2c1Oc1nc(-c3ccccc3)nc(SCC(=O)N3CCCCC3)c1C2	inconclusive: 8.2 µM [inhibitor, partial curve]
COc1ccc(NC(=O)c2ccccc2NC(=O)c2ccccc2C(=O)O)c(OC)c1	inconclusive: 25.9 µM [activator, single point]
CCN(CC)S(=O)(=O)c1ccc2c(c1)nc(-c1ccccn1)n2C	inconclusive: 20.6 µM [activator, partial curve]
CCOC(=O)C1CCCN(C(=O)c2ccc(S(=O)(=O)N3CCCC3)cc2)C1 (centres undefined)	inactive

Two records picked at random from those above:
SMILES	Potency
O=C(CN1CCOCC1)Nc1ccc2c(c1)CCC2	inconclusive: 14.6 µM [activator, single point]
O=C(CN1C(=O)CCC1=O)Nc1nc(-c2nc3ccccc3s2)cs1	inconclusive: 10.3 µM [activator, partial curve]

— PubChem BioAssay AID504467 (National Center for Advancing Translational Sciences (NCATS), 2011)
